Hit rate of the full screen: of about 1,100 compounds, about 100 (9.1%) were called active.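 Rule for the calls: active = inhibition above a per-plate limit, the mean inhibition of that plate's test compounds plus 3 SD (cut at about 25% in these data); inactive = the rest.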 Only a part is listed here, and it is no random draw.
Assay: nonselective Gq signaling antagonists, untransfected CHO – cell-based, fluorescence, CHO-K1, triplicate, counter-screen for OX1R antagonist project (AID 492965);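 note: 0% = ATP challenge with DMSO and 100% = DMSO without ATP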
Details: parental CHO-K1, ATP-induced calcium, Fluo-8 fluorescence; at 5.6 µM; stronger effect = higher value

For CC(C(=O)Nc1ccc(Cl)cc1Cl)N1CC=C(c2ccccc2)CC1 (stereo unspecified), which inhibition is on record?
Its inhibition is inactive: -16.3%.

— PubChem BioAssay AID492965 (The Scripps Research Institute Molecular Screening Center, 2010)
